The supplement of paper PMC7666118
Some of the results follow.

Amino acid sequences for entries named in this document (tags omitted). A change or cut given only in a name is not applied to a line headed by its entry.
UniProt P31995: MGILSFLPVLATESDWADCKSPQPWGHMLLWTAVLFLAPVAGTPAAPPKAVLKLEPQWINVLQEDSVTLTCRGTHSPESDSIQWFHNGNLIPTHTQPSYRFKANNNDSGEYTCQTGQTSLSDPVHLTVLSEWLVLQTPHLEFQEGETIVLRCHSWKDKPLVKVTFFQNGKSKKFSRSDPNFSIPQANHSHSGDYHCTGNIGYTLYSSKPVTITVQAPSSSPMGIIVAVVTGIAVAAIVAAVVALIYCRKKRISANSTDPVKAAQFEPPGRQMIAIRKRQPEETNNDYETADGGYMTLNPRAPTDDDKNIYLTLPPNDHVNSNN
UniProt P06241, whole entry, looked up: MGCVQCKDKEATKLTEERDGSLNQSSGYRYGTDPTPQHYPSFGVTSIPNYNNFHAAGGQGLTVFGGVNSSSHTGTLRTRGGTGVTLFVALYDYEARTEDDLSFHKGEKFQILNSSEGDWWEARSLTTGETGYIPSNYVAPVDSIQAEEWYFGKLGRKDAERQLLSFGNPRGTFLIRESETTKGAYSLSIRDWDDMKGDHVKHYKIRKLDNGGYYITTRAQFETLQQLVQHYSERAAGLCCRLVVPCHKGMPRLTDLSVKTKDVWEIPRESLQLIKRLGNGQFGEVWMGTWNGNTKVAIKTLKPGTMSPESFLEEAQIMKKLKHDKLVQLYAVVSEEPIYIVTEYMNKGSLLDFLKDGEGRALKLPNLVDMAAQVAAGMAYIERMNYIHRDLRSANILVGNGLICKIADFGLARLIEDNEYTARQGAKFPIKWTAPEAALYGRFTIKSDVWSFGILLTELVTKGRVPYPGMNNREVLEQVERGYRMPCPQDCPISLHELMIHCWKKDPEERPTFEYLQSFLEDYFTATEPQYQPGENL
UniProt Q6P1L5: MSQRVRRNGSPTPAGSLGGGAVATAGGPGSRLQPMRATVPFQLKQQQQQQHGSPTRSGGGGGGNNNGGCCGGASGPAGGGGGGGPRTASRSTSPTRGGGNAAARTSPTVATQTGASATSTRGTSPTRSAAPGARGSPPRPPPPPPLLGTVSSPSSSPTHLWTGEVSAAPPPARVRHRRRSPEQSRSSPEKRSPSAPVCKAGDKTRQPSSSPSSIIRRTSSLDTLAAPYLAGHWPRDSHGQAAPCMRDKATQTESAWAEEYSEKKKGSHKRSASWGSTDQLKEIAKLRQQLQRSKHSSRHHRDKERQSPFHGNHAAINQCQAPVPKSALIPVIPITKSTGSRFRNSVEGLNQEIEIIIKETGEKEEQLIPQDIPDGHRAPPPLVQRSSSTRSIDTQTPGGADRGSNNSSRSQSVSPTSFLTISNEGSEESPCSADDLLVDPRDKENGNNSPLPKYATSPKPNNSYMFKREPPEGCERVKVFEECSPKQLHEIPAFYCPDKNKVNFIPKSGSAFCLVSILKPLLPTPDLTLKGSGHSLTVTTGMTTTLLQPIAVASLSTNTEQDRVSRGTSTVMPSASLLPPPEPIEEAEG
UniProt P51570: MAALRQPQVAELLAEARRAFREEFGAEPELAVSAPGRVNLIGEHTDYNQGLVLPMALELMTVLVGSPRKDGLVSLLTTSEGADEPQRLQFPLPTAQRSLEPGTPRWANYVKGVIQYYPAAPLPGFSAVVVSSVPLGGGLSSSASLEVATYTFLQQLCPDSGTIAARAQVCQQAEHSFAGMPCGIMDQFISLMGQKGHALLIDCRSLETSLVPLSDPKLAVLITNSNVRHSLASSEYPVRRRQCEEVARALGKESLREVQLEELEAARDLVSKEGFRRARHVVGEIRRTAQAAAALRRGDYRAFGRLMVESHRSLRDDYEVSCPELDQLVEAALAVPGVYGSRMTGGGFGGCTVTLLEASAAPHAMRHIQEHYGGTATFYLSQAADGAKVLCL
UniProt P10109: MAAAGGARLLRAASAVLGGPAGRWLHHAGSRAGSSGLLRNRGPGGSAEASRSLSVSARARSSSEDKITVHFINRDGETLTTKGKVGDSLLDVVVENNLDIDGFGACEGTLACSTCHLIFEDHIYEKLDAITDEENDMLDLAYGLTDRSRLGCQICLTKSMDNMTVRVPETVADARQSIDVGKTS
UniProt Q5T1M5: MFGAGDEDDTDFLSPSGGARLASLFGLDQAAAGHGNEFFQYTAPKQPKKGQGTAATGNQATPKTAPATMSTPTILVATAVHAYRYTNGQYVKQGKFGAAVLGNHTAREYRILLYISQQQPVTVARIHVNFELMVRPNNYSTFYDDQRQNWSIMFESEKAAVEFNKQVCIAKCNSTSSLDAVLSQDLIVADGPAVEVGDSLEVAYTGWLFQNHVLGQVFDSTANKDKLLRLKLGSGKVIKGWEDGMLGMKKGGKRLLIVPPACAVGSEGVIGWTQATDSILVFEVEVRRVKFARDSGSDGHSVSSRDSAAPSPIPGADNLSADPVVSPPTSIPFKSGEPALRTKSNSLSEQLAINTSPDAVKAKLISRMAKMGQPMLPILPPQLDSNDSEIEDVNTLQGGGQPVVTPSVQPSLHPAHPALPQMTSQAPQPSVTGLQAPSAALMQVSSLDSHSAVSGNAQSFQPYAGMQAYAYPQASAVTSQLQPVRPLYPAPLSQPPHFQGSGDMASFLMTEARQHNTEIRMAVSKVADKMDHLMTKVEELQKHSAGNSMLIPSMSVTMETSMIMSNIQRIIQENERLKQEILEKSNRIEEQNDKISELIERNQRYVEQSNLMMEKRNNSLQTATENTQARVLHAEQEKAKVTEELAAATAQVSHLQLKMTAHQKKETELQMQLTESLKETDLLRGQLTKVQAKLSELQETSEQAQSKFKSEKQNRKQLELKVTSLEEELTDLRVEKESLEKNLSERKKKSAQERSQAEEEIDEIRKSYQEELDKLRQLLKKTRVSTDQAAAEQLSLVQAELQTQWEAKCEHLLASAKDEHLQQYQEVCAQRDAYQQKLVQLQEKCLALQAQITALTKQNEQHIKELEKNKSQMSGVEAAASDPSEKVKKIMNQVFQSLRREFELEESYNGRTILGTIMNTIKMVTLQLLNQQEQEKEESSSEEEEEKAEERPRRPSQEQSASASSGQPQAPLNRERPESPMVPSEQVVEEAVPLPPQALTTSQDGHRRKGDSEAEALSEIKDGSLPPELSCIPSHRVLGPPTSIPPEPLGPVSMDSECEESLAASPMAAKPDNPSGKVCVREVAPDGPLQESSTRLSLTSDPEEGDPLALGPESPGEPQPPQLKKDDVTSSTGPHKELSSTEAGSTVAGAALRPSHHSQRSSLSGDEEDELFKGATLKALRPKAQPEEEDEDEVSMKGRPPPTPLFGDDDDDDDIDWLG
UniProt Q96B26, whole entry: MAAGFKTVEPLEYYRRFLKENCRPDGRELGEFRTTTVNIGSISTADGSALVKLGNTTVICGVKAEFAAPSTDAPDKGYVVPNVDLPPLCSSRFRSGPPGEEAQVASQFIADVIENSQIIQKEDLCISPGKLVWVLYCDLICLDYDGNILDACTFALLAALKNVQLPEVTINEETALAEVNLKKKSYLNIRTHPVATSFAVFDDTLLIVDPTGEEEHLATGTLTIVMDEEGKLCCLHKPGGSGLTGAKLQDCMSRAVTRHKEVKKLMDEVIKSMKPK
UniProt Q9HA64: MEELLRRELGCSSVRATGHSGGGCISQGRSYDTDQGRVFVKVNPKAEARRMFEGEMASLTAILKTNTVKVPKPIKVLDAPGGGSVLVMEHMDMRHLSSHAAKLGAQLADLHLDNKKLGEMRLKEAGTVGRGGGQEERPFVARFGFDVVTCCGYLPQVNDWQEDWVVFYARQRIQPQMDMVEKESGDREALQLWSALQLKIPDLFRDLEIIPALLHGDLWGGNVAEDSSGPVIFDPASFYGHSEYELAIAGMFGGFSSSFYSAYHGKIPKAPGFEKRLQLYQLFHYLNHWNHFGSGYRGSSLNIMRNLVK
UniProt Q9Y3D6: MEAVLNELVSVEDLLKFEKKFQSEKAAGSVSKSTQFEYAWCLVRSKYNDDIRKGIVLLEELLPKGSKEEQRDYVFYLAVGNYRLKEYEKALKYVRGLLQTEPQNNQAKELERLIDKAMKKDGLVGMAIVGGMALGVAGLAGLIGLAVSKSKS
UniProt Q7Z309: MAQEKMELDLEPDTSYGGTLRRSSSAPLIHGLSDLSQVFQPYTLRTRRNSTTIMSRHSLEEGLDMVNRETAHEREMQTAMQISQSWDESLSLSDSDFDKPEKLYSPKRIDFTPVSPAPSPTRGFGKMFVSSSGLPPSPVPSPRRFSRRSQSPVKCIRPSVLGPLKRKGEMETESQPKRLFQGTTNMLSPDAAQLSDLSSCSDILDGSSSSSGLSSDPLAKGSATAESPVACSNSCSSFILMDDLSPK
UniProt Q8WZA9: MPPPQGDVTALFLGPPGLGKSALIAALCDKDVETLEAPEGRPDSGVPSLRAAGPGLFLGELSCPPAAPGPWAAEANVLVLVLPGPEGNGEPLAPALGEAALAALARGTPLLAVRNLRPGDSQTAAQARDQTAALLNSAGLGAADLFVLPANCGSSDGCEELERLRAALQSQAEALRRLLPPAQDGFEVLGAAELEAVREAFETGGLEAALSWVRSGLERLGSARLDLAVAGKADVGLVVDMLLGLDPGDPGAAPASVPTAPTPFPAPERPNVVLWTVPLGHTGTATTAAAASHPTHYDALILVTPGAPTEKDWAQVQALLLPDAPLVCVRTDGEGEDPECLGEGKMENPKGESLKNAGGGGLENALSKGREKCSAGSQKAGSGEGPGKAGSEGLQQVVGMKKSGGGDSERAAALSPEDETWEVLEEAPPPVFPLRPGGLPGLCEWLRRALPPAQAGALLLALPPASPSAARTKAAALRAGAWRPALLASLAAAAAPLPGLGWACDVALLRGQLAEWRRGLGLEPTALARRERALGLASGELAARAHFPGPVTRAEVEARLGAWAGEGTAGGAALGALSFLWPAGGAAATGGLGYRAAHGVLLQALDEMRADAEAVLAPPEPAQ
UniProt Q9H5X1: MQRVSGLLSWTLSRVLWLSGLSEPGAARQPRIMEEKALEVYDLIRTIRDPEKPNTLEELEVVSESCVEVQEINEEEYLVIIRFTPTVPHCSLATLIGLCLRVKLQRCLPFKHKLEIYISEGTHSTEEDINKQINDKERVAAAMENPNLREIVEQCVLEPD
UniProt Q10472: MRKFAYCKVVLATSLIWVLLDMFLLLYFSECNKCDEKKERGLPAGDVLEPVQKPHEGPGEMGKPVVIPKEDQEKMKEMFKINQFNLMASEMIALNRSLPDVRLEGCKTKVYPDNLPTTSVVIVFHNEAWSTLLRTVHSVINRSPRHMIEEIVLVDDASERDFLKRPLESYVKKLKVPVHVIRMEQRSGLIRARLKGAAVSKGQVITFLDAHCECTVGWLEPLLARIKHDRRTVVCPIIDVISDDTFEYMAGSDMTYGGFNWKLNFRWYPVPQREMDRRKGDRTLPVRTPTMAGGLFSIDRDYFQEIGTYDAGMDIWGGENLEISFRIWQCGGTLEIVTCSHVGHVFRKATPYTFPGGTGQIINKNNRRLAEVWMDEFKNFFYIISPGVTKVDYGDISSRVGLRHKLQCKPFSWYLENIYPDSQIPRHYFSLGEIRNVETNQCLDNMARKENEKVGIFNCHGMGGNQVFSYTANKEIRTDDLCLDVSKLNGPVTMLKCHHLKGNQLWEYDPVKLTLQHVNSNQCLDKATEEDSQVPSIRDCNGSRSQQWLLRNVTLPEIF
UniProt Q7Z6M2: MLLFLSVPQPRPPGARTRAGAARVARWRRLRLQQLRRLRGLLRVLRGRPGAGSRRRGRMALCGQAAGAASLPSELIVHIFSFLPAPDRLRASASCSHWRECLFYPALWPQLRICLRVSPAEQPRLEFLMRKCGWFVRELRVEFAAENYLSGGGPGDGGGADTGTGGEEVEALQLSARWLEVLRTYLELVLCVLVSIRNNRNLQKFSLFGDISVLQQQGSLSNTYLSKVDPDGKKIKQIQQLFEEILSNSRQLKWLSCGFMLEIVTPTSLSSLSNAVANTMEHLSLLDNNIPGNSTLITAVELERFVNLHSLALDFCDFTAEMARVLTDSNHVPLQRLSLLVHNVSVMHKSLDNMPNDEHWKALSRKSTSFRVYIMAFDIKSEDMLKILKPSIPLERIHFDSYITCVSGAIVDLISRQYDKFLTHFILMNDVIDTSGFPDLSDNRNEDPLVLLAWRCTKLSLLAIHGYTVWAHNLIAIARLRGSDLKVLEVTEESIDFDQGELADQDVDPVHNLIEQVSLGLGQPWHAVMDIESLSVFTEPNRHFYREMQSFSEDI
UniProt Q13451: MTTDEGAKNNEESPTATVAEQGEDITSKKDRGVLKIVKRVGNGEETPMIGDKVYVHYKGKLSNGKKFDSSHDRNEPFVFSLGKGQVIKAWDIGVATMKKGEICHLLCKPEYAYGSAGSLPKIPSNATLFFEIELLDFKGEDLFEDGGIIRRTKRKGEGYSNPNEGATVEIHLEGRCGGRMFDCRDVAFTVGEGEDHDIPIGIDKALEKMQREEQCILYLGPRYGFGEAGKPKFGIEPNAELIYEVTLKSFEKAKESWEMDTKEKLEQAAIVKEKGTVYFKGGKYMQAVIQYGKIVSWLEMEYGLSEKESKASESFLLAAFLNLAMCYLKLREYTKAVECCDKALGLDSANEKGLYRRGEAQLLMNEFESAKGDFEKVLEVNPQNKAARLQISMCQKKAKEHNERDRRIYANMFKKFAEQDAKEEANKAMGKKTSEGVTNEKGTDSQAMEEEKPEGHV

Compound: COc1ccc(Cn2ccc3ccc(C(=O)NO)cc32)cc1
Test: dose-dependent thermal stabilisation call (2D-TPP, DLPTP, 10% FDR) (binary (1 = stabilised)); higher = stabilised by the compound
Details: system: HL-60 intact cells; concentration range 0.04-10 µM

Row | Target | dose-dependent thermal stabilisation call
1 | FAM125A (UniProt Q96EY5) | inactive: 0
2 | FCGR2C (UniProt P31995) | inactive: 0
3 | FYN (UniProt P06241) | inactive: 0
4 | GALNT11 (UniProt Q8NCW6) | inactive: 0
5 | FAM117B (UniProt Q6P1L5) | inactive: 0
6 | FOXP1 (UniProt Q9H334) | inactive: 0
7 | FLNA (UniProt P21333) | inactive: 0
8 | FTL (UniProt P02792) | inactive: 0
9 | FKRP (UniProt Q9H9S5) | inactive: 0
10 | GALK1 (UniProt P51570) | inactive: 0
11 | GALNT14 (UniProt Q96FL9) | inactive: 0
12 | FAM120B (UniProt Q96EK7) | inactive: 0
13 | FAM29A (UniProt Q7Z4H7) | inactive: 0
14 | FDX1 (UniProt P10109) | inactive: 0
15 | FKBP15 (UniProt Q5T1M5) | inactive: 0
16 | EXOSC9 (UniProt Q06265) | inactive: 0
17 | EXOSC4 (UniProt Q9NPD3) | inactive: 0
18 | FEM1A (UniProt Q9BSK4) | inactive: 0
19 | EXT2 (UniProt Q93063) | inactive: 0
20 | FAM162A (UniProt Q96A26) | inactive: 0
21 | FBXW2 (UniProt Q9UKT8) | inactive: 0
22 | FAM128A (UniProt Q6P582) | inactive: 0
23 | FNDC3A (UniProt Q9Y2H6) | inactive: 0
24 | FUBP3 (UniProt Q96I24) | inactive: 0
25 | EXOSC8 (UniProt Q96B26) | inactive: 0

Row | Target | dose-dependent thermal stabilisation call
26 | EXOSC5 (UniProt Q9NQT4) | inactive: 0
27 | FN3KRP (UniProt Q9HA64) | inactive: 0
28 | FBXO5 (UniProt Q9UKT4) | inactive: 0
29 | FOXK1 (UniProt P85037) | inactive: 0
30 | ETHE1 (UniProt O95571) | inactive: 0
31 | FIS1 (UniProt Q9Y3D6) | inactive: 0
32 | FDXR (UniProt P22570) | inactive: 0
33 | GATAD2B (UniProt Q8WXI9) | inactive: 0
34 | FAM164A (UniProt Q96GY0) | inactive: 0
35 | EVL (UniProt Q9UI08) | inactive: 0
36 | FAM120A (UniProt Q9NZB2) | inactive: 0
37 | FGFR1OP2 (UniProt Q9NVK5) | inactive: 0
38 | FLJ45032 | inactive: 0
39 | FAM122B (UniProt Q7Z309) | inactive: 0
40 | FAR1 (UniProt Q8WVX9) | inactive: 0
41 | FARSA (UniProt Q9Y285) | inactive: 0
42 | ETFA (UniProt P13804) | inactive: 0
43 | EXTL2 (UniProt Q9UBQ6) | inactive: 0
44 | FBXW9 (UniProt Q5XUX1) | inactive: 0
45 | FABP5 (UniProt Q01469) | inactive: 0
46 | FAT1 (UniProt Q14517) | inactive: 0
47 | ETF1 (UniProt P62495) | inactive: 0
48 | FHOD1 (UniProt Q9Y613) | inactive: 0
49 | FBL (UniProt P22087) | inactive: 0
50 | FLG (UniProt P20930) | inactive: 0

Row | Target | dose-dependent thermal stabilisation call
51 | FANCB (UniProt Q8NB91) | inactive: 0
52 | FAM160A2 (UniProt Q8N612) | inactive: 0
53 | EXOSC3 (UniProt Q9NQT5) | inactive: 0
54 | FKSG27 (UniProt Q8WZA9) | inactive: 0
55 | FERMT3 (UniProt Q86UX7) | inactive: 0
56 | FNBP1 (UniProt Q96RU3) | inactive: 0
57 | FAM96A (UniProt Q9H5X1) | inactive: 0
58 | EXTL3 (UniProt O43909) | inactive: 0
59 | FOXRED1 (UniProt Q96CU9) | inactive: 0
60 | FRYL (UniProt O94915) | inactive: 0
61 | FANCI (UniProt Q9NVI1) | inactive: 0
62 | FAM160B1 (UniProt Q5W0V3) | inactive: 0
63 | GABARAP (UniProt O95166) | inactive: 0
64 | GALNT1 (UniProt Q10472) | inactive: 0
65 | FAM185A (UniProt Q8N0U4) | inactive: 0
66 | FLI1 (UniProt Q01543) | inactive: 0
67 | FAM136A (UniProt Q96C01) | inactive: 0
68 | FBXO33 (UniProt Q7Z6M2) | inactive: 0
69 | FKBP5 (UniProt Q13451) | inactive: 0
70 | GABARAPL2 (UniProt P60520) | inactive: 0
71 | FBN2 (UniProt P35556) | inactive: 0
72 | FBXO7 (UniProt Q9Y3I1) | inactive: 0
73 | FAM33A (UniProt Q8WVK7) | inactive: 0
74 | GAA (UniProt P10253) | inactive: 0

Copied from the list:
Entry for GABARAPL2 (UniProt P60520) under dose-dependent thermal stabilisation call: inactive: 0
Entry for GAA (UniProt P10253) under dose-dependent thermal stabilisation call: inactive: 0
Entry for FAM136A (UniProt Q96C01) under dose-dependent thermal stabilisation call: inactive: 0
Entry for GALNT1 (UniProt Q10472) under dose-dependent thermal stabilisation call: inactive: 0
